Laboratory results published in PubChem BioAssay AID540275 (National Center for Advancing Translational Sciences (NCATS), 2011).
Screen size: about 320,000 compounds; about 620 (0.19%) were called active. The shares of active, inactive and inconclusive entries below differ from those in the screen. Rule as the data show it: active = activation above about 80%; inconclusive = between about 30% and that limit; inactive = weaker than that.
Also: 0% is about no effect.

Sequences of proteins named here, by UniProt entry; tags and fusion partners are left off.
UniProt Q8NER1, whole entry, looked up: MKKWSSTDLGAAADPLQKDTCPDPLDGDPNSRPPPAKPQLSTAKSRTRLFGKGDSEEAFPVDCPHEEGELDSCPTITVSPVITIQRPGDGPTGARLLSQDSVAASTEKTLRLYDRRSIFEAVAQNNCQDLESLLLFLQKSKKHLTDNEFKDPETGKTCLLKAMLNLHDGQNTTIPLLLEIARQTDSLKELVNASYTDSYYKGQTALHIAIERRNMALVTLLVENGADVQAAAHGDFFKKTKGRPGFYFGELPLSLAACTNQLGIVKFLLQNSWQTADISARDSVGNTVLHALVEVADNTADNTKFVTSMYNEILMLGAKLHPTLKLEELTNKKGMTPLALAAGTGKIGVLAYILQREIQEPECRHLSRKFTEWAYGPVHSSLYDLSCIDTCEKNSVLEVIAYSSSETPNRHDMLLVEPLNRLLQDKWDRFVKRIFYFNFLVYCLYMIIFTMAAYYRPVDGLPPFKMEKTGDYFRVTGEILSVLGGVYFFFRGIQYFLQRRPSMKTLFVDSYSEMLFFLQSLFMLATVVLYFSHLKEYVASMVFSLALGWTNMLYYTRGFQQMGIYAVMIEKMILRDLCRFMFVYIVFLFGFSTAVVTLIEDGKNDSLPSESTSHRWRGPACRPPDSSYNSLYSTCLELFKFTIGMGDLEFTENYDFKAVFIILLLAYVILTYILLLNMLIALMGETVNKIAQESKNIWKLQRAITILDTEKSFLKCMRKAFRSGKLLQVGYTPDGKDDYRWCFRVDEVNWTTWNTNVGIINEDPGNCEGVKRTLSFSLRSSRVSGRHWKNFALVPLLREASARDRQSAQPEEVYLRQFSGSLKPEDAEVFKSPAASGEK

The compounds below were run against Transient receptor potential cation channel subfamily V member 1 (Homo sapiens) (UniProt Q8NER1) (assay: HTS Assay for Compounds that Act as Agonists of the Vanilloid Receptor 1). Details: TRPV1-expressing cells, Fluo-8 calcium influx, agonist mode; at 8.33 µM, active compounds read high.
Procedure, shortened: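 Fluo-8 calcium influx in TRPV1-expressing cells, kinetic read (ex 480/em 520 nm). Compound added and read 3 min for agonist activity, followed by capsaicin at EC20 final and 2 min further read for enhancement.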
In the case of CCc1ccc(NC(=O)C(=O)NCC2CCCO2)cc1 (configuration not stated), the activation is reported as inconclusive: 56.4%.
For c1ccc(CN2CCC3(CCCc4ccccc43)CC2)cc1, the activation was inactive: 1.4%.
In the case of Fc1ccc(/C=C/c2nnc(-c3cccs3)o2)cc1, the activation is reported as inconclusive: 37%.
COC(=O)[C@]1(C)CCC[C@@]2(C)C3CC[C@]4(OC(C)=O)C[C@@]3(CCC21)CC4=O (some centres not stated) was tested, and the activation was inconclusive: 55.8%.
In the case of Cc1ccc(S(=O)(=O)C(c2ccccc2)c2c(C)noc2C)cc1 (configuration not stated), the activation is reported as inactive: 28.5%.
For O=C(COC(=O)CCC(=O)c1ccc(F)cc1)Nc1cccc(S(=O)(=O)N2CCOCC2)c1, the activation was inactive: 11%.
COc1ccccc1NC(=O)C(C)OC(=O)CCC1CCCCC1 (configuration not stated) was tested, and the activation was inconclusive: 33.7%.
In the case of Cc1ccc(-n2nc(C)c3c(C)c(CCC(=O)NCc4ccco4)c(C)nc32)cc1, the activation is reported as active: 81.7%.
With COc1ccccc1C(C)NC(=O)CCOc1cccc(C)c1 (configuration not stated) the activation was inconclusive: 38%.
With CC(=O)Nc1cccc(NC(=O)c2oc3ccccc3c2C)c1 the activation was inconclusive: 70.2%.
Cc1nn2cc(-c3ccccc3)nc2s1 was tested, and the activation was inactive: 2.95%.
For O=C(c1ccco1)N1CCN(c2ccc(Cl)cc2)CC1, the activation was inconclusive: 46.6%.
With Cc1cc(NC(=O)Cc2ccsc2)ccc1Br the activation was inconclusive: 56.1%.
Cc1ccc(CS(=O)(=O)CCC(=O)NCCC2=CCCCC2)cc1 was tested, and the activation was inconclusive: 42.5%.
With O=C(/C=C/c1cccc(Br)c1)NCc1ccncc1 the activation was inconclusive: 55.4%.
With COc1cc(OC)cc(C(=O)N[C@H](C(=O)OCc2cc(=O)oc3cc(C)ccc23)C(C)C)c1 the activation was inconclusive: 32.3%.
For CN(C)c1ccc(C(=O)N(Cc2ccccc2)Cc2ccccc2)cc1, the activation was inconclusive: 48.3%.
With CCCc1nn(C)c2c(=O)[nH]c(-c3ccccc3OCC)nc12 the activation was inconclusive: 39.1%.
O=C(NC(=S)Nc1ccccc1Br)C1CCC1 was tested, and the activation was inactive: 22.6%.
With Cc1cc2cc(C)c3nnc(SCc4ccccn4)n3c2cc1C the activation was inconclusive: 34.2%.
O=C1C2C3C=CC(C3)C2C(=O)N1c1ccc(-c2nc3ccccc3o2)cc1 (configuration not stated) was tested, and the activation was inactive: -0.546%.
In the case of O=C(C1CCCC1)N1CCCC(Nc2ccc(F)cc2)C1 (configuration not stated), the activation is reported as inconclusive: 54%.
COc1ccc(C=C2C(=O)OC(C)(C)OC2=O)cc1OC was tested, and the activation was inactive: -6.58%.
In the case of O=C(CSc1n[nH]c(=O)n1C1CC1)Nc1ccccc1, the activation is reported as inactive: -0.185%.
With Cc1nnsc1NC(=O)OCc1ccc(Cl)cc1Cl the activation was inactive: 11.8%.
O=C(Nc1cccc([N+](=O)[O-])c1)c1ccc2snnc2c1 was tested, and the activation was inconclusive: 49.5%.
With CC(C)(C)Nc1nc(Oc2ccc(=O)n(-c3ccccc3)n2)nc(N2CCOCC2)n1 the activation was inconclusive: 35.7%.
In the case of CCc1ccc(-n2c(Cn3nc(C(F)(F)F)cc3C)n[nH]c2=S)cc1, the activation is reported as inactive: 3.26%.
C/C(=N\N1CCN(c2ccccc2)CC1)c1ccccc1O was tested, and the activation was inconclusive: 35%.
With O=C(c1noc2c1CCCC2)N1CCN(c2ccc(F)cc2)CC1 the activation was inconclusive: 54.4%.
With COc1cccc(C(=O)O/N=C2\CCS(=O)(=O)c3sccc32)c1 the activation was inconclusive: 34.5%.
In the case of OC(CNCCc1ccc(C(F)(F)F)cc1)COc1ccc2ccccc2c1 (configuration not stated), the activation is reported as inactive: 7.1%.
With O=C1CC2(CCN(C(=O)c3ccc(F)c(F)c3)CC2)Oc2ccccc21 the activation was inconclusive: 66.4%.
With Cc1cc2c(cc(C(=O)OCC(=O)NCc3cccs3)n2C(C)C)o1 the activation was inconclusive: 34.4%.
Fc1cccc(Nc2ncnc3sccc23)c1 was tested, and the activation was inconclusive: 65.2%.
In the case of O=C(Nc1ccc(O)cc1)/C(=C\C=C\c1ccccc1)NC(=O)c1ccccc1, the activation is reported as inconclusive: 58.8%.
With COc1ccc(CNC(=O)CCSCc2cccc(Cl)c2)c(OC)c1 the activation was inconclusive: 30.4%.
CC1(C)Oc2ccc(/C=C/C(=O)N3CCOCC3)c(O)c2C(N2CCOCC2)C1O (configuration not stated) was tested, and the activation was inactive: 2.52%.
CC(=O)CCC(=O)NC1CCCc2c1cnn2-c1ccc(C(C)(C)C)cc1 (configuration not stated) was tested, and the activation was inconclusive: 44%.
In the case of Cc1cccc(C(=O)Nc2cc(C)ccc2NC(=O)COc2ccccc2)c1, the activation is reported as inconclusive: 55.4%.
COc1ccc(CCOC(=O)c2cccc(NC(C)=O)c2)cc1 was tested, and the activation was inconclusive: 31.7%.
Cc1ccc(-n2nc3c(N4CCC(C(=O)NCCc5ccccc5C)CC4)nnc(C)c3c2C)cc1 was tested, and the activation was inconclusive: 41.2%.
With CC(C)OC(=O)CSc1nc(N)c(C#N)c(-c2ccco2)c1C#N the activation was inconclusive: 36.1%.
With S=C(NCc1ccco1)Nc1cccc(Cl)c1Cl the activation was inconclusive: 48.3%.
For CCOc1cccc(/C=N/NC(=O)c2cc(C3CC3)[nH]n2)c1O, the activation was inconclusive: 46.8%.
NC1=CC(=O)c2cccc3cccc1c23 was tested, and the activation was inactive: -2.33%.
In the case of CC(C)CCNC(=O)c1csc2c1CCCCC2, the activation is reported as inconclusive: 30%.
In the case of COc1cccc(-c2ccc(=O)n(CC(=O)NCCN3CCOCC3)n2)c1, the activation is reported as inactive: -1.17%.
With Cc1ccc(NC(=O)CN(C)CC(=O)Nc2ccccc2C(=O)Nc2ccccc2)cc1 the activation was inconclusive: 31.8%.
With COc1cc(-c2nnc(CSc3nnc(Nc4ccc(Oc5ccccc5)cc4)s3)o2)cc(OC)c1OC the activation was inactive: -2.37%.
With CC(C)(C)NC(=O)CSc1nc2ccccc2n1-c1ccccc1 the activation was inconclusive: 38.6%.
With O=C(Nc1nc2c(s1)CCCC2)c1cccs1 the activation was inconclusive: 55.6%.
CC(C)(C)c1ccc(-c2nc3n(c(=O)c2C#N)CCS3)cc1 was tested, and the activation was inconclusive: 50.2%.
With COc1ccc(NC(=O)c2ccc3c(=O)n(CC4CCCO4)c(=S)[nH]c3c2)c(OC)c1 (configuration not stated) the activation was inactive: -1.37%.
In the case of CCOc1ccc(/C=N/Nc2ccccn2)cc1OC, the activation is reported as inactive: -0.201%.
For CCCCCCN1C=CC(=C2C(=O)c3ccccc3C2=O)C=C1, the activation was inactive: 2.55%.
With CN(C)c1ccc(C(=O)N/N=C/c2ccccn2)cc1 the activation was inactive: 13.2%.
O=C(NNC(=O)c1cc(-c2ccncc2)nc2ccccc12)c1cccc(Cl)c1 was tested, and the activation was inactive: 3.94%.
In the case of CC(C)(C)c1cc(C(C)(C)C)c2oc(=O)c(-c3nc4ccc(C(=O)O)cc4[nH]3)cc2c1, the activation is reported as inconclusive: 61.9%.
Cn1c(/C(C#N)=C/C2CC=CCC2)nc2ccccc21 (configuration not stated) was tested, and the activation was inconclusive: 33.5%.
In the case of O=C(N/N=C/c1ccc(O)cc1)c1[nH]c2ccc(Br)cc2c1-c1ccccc1, the activation is reported as inconclusive: 70.4%.
For CN(Cc1ccccc1)C(=O)c1cccc(N2C(=O)C3CC=CCC3C2=O)c1 (configuration not stated), the activation was inactive: -4.45%.
In the case of CC1(C)CC(=O)C([N+](=O)[O-])=C(NCCCC(=O)O)C1, the activation is reported as inactive: -0.694%.
With CCCOc1ccc(Cc2nn3c(=O)/c(=C/c4ccco4)sc3nc2=O)cc1 the activation was inactive: -1.15%.
With COc1ccc(CCNC(=O)c2ccc(Cl)c(S(=O)(=O)N3CCCCCC3)c2)cc1 the activation was inactive: 9.9%.
O=C(CCc1c[nH]c2ccccc12)N1CCN(c2ccc(F)cc2)CC1 was tested, and the activation was inconclusive: 37.9%.
Cc1ccc2cc(CN(CC(C)C)S(=O)(=O)c3ccccc3)c(=O)[nH]c2c1 was tested, and the activation was inconclusive: 33%.
CCOc1cccc(-c2nn(-c3ccccc3)cc2/C=C(/C#N)C(=O)NCCCn2ccnc2)c1 was tested, and the activation was inconclusive: 47.4%.
OC1(c2ccc(Cl)cc2)CN(c2ccccc2)C2=[N+]1CCS2 (configuration not stated) was tested, and the activation was inconclusive: 38%.
With O=C(/C=C/c1ccccc1Cl)N1CCOCC1 the activation was inconclusive: 45.2%.
In the case of CNC(=O)c1[nH]cnc1C(=O)Nc1ccc(OC)cc1, the activation is reported as inactive: 1.94%.
For O=C1C=C(c2ccc(F)nc2)C[C@@H](c2ccc3c(c2)OCO3)C1, the activation was inconclusive: 41.3%.
O=C(c1cc(COc2ccc(F)cc2F)on1)N1CCOCC1 was tested, and the activation was inconclusive: 37.1%.
CCCn1c(SCC(=O)N2CCCCC2)nnc1C(C)C was tested, and the activation was inconclusive: 58.2%.
In the case of O=C1c2ccccc2C(=Nc2ccccc2)C1c1cccc(Br)c1 (configuration not stated), the activation is reported as inconclusive: 35.1%.
For Cc1ccc(/C=C/C(=O)NCc2cccs2)c(C)c1, the activation was inconclusive: 56%.
For O=C(CSc1ncnc2[nH]ncc12)Nc1cccc(Oc2ccccc2)c1, the activation was inconclusive: 40.2%.
For COc1ccccc1C(=O)NNC(=O)c1ccc(Br)cc1, the activation was inconclusive: 56.1%.
In the case of N#Cc1c(/N=C/c2cccs2)sc2c1CCC2, the activation is reported as inconclusive: 30.3%.
In the case of O=C(/C=C/c1ccccc1)Nc1cccnc1Oc1ccccc1F, the activation is reported as inconclusive: 39%.
In the case of Cc1nc2ccccc2c(=O)n1/N=C/c1c(O)ccc2ccccc12, the activation is reported as inactive: 3.3%.
In the case of Cc1sc2ncn(CC(=O)N(CC(=O)NC3CCCC3)Cc3cccs3)c(=O)c2c1C, the activation is reported as inconclusive: 40.6%.
In the case of COc1cccc(CNC(=O)CCC2CCCN(C(=O)c3ccccc3N(C)C)C2)c1 (configuration not stated), the activation is reported as inconclusive: 79%.
For CCOc1ccc(OCC(=O)OC(C)C(=O)NC2CCCCC2C)cc1 (configuration not stated), the activation was inactive: 11.7%.
In the case of CC(C)C(=O)N1CCN(c2ccc(NC(=O)COc3ccccc3[N+](=O)[O-])cc2)CC1, the activation is reported as inactive: 4.06%.
CCN(CC)C(=O)C1CCCN(c2ccccc2[N+](=O)[O-])C1 (configuration not stated) was tested, and the activation was inconclusive: 31.5%.
In the case of CC(=O)c1ccc(NC(=O)Nc2ccc3c(c2)N(C)C(=O)CS3)cc1, the activation is reported as inconclusive: 70.4%.
With O=C(Nc1ccc2ccccc2c1)c1ccccc1O the activation was inconclusive: 55.8%.
With CCS(=O)(=O)N1CCCC(C(=O)NCc2ccc(C)cc2)C1 (configuration not stated) the activation was inconclusive: 30.7%.
In the case of Cc1ccc(NC2CCCN(C(=O)CSc3ccccn3)C2)cc1C (configuration not stated), the activation is reported as inconclusive: 66%.
For Cn1cc(SCC(=O)Nc2ccc3c(c2)OCO3)c2ccccc21, the activation was inconclusive: 36.8%.
For CC(=O)Nc1ccc(NC(=O)C/C(C)=N/NC(=O)C(=O)Nc2ccc(C)c(Cl)c2)cc1, the activation was inactive: 0.559%.
